Assay results published in the supplement of paper PMC6078165.
Values are relative to the signal before dosing, not to a vehicle control; the signal also falls without drug.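 Fibroblast labels denote human fibroblasts, mainly primary ones from uterus (C12385, HUF), lung (H6013), bone (Hs27A), adrenal (HADF) and skin (WS1), plus mammary HMF and breast cancer-associated Hs343T. Cancer cells are basal-like or mesenchymal-like triple-negative breast cancer lines. A hit is a response shift exceeding 3x replicate standard deviation. The tissue of the other fibroblasts is not given here.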

Test system: BT20
Assay: relative JC-1 red fluorescence (viability) vs pre-drug, coculture with fibroblast (fraction); higher = more viable cancer cells
Conditions: 10 µM
Experimental: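 JC-1 labelled TNBC cells cocultured 1:1 (1,500 cells each) with CellTrace Violet stained primary or stromal fibroblasts in 384-well plates in FluoroBrite medium, treated with one of 42 anticancer drugs at 0.1, 1, 10 or 100 uM. JC-1 red fluorescence (mitochondrial integrity in cancer cells only) was read by plate reader every 8 h for 72 h. Values are normalised to each well's pre-drug value. The stock of one drug was tenfold lower, so its dose labels may be too high.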

O=C(O)CCCc1ccc(N(CCCl)CCCl)cc1 [Chlorambucil]
relative JC-1 red fluorescence
Conditions | 8 h | 16 h | 24 h | 32 h | 40 h | 48 h | 56 h | 64 h | 72 h
coculture fibroblast: C12385 | 0.874 | 0.821 | 0.773 | 0.715 | 0.656 | 0.628 | 0.587 | 0.558 | 0.537
coculture fibroblast: H6013 | 0.937 | 0.892 | 0.859 | 0.829 | 0.794 | 0.772 | 0.771 | 0.748 | 0.734
coculture fibroblast: H6019 | 0.8671 | 0.826 | 0.824 | 0.78 | 0.733 | 0.706 | 0.676 | 0.65 | 0.623
coculture fibroblast: H6076 | 0.9796 | 0.931 | 0.86 | 0.849 | 0.838 | 0.818 | 0.826 | 0.836 | 0.825
coculture fibroblast: H6231 | 0.749 | 0.889 | 0.782 | 0.707 | 0.662 | 0.605 | 0.569 | 0.546 | 0.514
coculture fibroblast: HADF | 0.959 | 0.902 | 0.84 | 0.811 | 0.775 | 0.729 | 0.708 | 0.679 | 0.6477
coculture fibroblast: HCFa | 0.9283 | 0.86 | 0.799 | 0.75 | 0.707 | 0.663 | 0.634 | 0.607 | 0.572
coculture fibroblast: HCPF | 0.981 | 0.909 | 0.846 | 0.806 | 0.782 | 0.745 | 0.718 | 0.71 | 0.675
coculture fibroblast: HHSteC | 0.923 | 0.897 | 0.875 | 0.814 | 0.772 | 0.744 | 0.717 | 0.697 | 0.672
coculture fibroblast: HMF | 0.9433 | 0.868 | 0.7887 | 0.746 | 0.714 | 0.676 | 0.656 | 0.623 | 0.602
coculture fibroblast: HPFa | 0.9198 | 0.854 | 0.835 | 0.754 | 0.718 | 0.678 | 0.65 | 0.622 | 0.58
coculture fibroblast: HUF | 0.876 | 0.7899 | 0.743 | 0.663 | 0.615 | 0.568 | 0.542 | 0.524 | 0.503
coculture fibroblast: Hs5 | 0.849 | 0.95 | 0.872 | 0.8227 | 0.77539 | 0.741 | 0.708 | 0.679 | 0.657
coculture fibroblast: Hs27A | 0.838 | 0.925 | 0.895 | 0.9 | 0.846 | 0.819 | 0.7933 | 0.76 | 0.709
coculture fibroblast: Hs343T | 0.884 | 0.902 | 0.78 | 0.713 | 0.655 | 0.599 | 0.547 | 0.52 | 0.481
coculture fibroblast: WS1 | 0.856 | 0.8022 | 0.748 | 0.682 | 0.619 | 0.585 | 0.543 | 0.509 | 0.482
